The results in this text go back to paper PMC6997074.

Amino acid sequences for entries named in this document (tags omitted).
UniProt P48431: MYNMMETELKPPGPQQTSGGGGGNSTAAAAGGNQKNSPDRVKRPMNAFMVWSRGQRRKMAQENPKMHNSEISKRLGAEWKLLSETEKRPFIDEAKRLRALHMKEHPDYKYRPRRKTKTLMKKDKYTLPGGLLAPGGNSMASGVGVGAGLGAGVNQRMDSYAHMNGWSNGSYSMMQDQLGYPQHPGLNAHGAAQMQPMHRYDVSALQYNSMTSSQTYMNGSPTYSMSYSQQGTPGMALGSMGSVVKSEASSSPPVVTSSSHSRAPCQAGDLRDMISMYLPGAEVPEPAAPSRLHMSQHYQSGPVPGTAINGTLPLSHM

Results are given in words; binding and its absence hold for the method and conditions named. Binding seen in cells or lysates may run through a third protein. Some entries that bind do so weakly or less than the wild type.

For one assay, the target named is DDK-tagged SQSTM1 (UniProt Q13501). Put plainly: co-IP; lysates of HEK293T cells transfected with DDK-SQSTM1 and Myc-SOX2 plasmids precipitated with an anti-DDK antibody and blotted with an anti-Myc antibody.
Assay [1] concerns the target Epidermal growth factor receptor (human (endogenous in CAL-27)) (UniProt P00533). Put plainly: co-IP; anti-EGFR coprecipitates from CAL-27 lysate (RIPA buffer, Protein A/G Plus-Agarose, overnight at 4°C) blotted with an anti-SOX2 antibody.
The target of assay [2] is p62 (human (endogenous in CAL-27 and SCC-15)) (UniProt Q13501). Put plainly: co-IP; lysates of CAL-27 and SCC-15 cells with or without 1 h of EGF (100 ng/mL) immunoprecipitated with an anti-p62 antibody and blotted with the indicated antibody.

As for “Myc-tagged wild-type SOX2 (from UniProt P48431 1-317)”, the binding entry with DDK-tagged SQSTM1 is reported as “binds”.

Turning to SOX2 (from UniProt P48431 1-317), the binding result in assay [1] and in assay [2] was “binds” throughout.
